Reference: paper PMC11841255
These are yes or no findings as the source states them, for the method shown. Binding seen in cells or lysates may run through a third protein. Binding calls can cover weak binding; strength is not graded here. Tags and fused reporters may be left off the sequences shown.

Target: truncated MYC: N-terminus
Assay: co-IP; exogenous, tagged plasmids co-transfected in 293T cells; lysate incubated with primary antibody at 4 °C for 12 h, Protein A/G magnetic beads 1 h at 4 °C, five washes, WB; in one panel GFP-CDCA3 co-transfected with HA-MYC and Flag-TRIM28 (interaction enhanced)

binding: binds
B1: GFP-CDCA3 (protein, UniProt Q99618 1-268)
chain: MGSAKSVPVTPARPPPHNKHLARVADPRSPSAGILRTPIQVESSPQPGLPAGEQLEGLKHAQDSDPRSPTLGIARTPMKTSSGDPPSPLVKQLSEVFETEDSKSNLPPEPVLPPEAPLSSELDLPLGTQLSVEEQMPPWNQTEFPSKQVFSKEEARQPTETPVASQSSDKPSRDPETPRSSGSMRNRWKPNSSKVLGRSPLTILQDDNSPGTLTLRQGKRPSPLSENVSELKEGAILGTGRLLKTGGRAWEQGQDHDKENQHFPLVES
